Experimental data: PMC12839168
Like-named read-outs stand apart in the source and are kept apart here. Results are given in words; binding and its absence hold for the method and conditions named. In cells and extracts the contact can be indirect. Here binding means that the protein was enriched with, or labelled near, the bait; the list need not be complete. For some assays here: A no says only that the protein was not detected with the bait.

The chains behind the UniProt entries cited, without tags or fusion partners. Where a name states a change or a piece, a line headed by the entry shows the natural chain unless it says otherwise.
UniProt Q8WYP5: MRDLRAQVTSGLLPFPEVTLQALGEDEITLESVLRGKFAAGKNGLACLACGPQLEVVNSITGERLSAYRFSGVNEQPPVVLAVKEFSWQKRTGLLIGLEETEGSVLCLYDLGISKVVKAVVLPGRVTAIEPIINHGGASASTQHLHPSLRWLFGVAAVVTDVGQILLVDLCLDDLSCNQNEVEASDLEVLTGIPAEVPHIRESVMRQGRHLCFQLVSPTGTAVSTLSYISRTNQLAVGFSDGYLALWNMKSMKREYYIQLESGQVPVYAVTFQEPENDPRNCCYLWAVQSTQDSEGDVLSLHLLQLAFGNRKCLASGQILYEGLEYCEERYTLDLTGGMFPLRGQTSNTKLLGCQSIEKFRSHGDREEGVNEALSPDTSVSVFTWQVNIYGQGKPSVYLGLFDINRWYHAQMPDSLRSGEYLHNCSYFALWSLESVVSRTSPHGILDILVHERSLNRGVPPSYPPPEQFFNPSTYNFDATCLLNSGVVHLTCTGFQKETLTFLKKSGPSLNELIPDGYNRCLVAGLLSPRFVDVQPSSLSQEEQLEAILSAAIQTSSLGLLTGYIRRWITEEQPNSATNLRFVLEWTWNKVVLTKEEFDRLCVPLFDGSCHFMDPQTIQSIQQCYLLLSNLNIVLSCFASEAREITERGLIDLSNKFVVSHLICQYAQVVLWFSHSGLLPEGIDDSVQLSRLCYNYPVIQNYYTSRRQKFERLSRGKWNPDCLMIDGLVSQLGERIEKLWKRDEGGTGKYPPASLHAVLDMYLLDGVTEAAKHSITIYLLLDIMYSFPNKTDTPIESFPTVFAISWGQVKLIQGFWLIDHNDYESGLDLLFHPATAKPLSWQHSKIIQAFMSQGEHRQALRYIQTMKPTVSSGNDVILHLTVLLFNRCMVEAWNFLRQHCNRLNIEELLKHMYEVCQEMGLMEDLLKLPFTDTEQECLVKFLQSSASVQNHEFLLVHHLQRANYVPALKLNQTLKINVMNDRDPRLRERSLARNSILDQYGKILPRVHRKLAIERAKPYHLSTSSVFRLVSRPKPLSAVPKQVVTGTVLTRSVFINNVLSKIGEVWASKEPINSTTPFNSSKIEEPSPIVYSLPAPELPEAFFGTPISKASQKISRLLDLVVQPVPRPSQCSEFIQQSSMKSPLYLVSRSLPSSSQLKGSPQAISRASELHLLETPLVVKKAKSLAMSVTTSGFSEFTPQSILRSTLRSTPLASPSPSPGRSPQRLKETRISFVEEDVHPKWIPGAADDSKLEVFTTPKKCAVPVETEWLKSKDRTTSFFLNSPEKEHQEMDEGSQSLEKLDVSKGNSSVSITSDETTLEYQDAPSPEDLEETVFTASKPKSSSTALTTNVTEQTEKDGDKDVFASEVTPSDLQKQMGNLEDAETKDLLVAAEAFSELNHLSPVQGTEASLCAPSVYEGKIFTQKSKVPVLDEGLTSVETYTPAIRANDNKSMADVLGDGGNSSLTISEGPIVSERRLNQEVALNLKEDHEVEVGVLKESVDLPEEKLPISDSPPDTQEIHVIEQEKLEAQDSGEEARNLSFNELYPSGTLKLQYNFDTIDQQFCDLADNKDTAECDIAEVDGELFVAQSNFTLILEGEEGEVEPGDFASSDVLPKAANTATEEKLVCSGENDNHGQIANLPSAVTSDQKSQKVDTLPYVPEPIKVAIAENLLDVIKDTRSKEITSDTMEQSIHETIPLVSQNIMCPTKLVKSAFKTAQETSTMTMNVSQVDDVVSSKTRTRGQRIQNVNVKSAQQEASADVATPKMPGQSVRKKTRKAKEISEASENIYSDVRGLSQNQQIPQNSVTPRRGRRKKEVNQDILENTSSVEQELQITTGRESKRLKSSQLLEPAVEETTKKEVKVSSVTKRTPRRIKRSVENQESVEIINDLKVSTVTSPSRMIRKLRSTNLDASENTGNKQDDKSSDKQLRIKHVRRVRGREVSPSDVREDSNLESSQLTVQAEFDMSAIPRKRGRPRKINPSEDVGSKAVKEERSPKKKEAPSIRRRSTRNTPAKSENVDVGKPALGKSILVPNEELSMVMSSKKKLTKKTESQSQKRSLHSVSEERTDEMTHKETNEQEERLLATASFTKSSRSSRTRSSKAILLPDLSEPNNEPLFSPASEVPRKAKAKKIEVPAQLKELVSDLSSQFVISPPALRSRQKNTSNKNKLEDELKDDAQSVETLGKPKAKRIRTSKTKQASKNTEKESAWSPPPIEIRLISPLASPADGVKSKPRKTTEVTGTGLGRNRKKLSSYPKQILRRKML
UniProt Q92769: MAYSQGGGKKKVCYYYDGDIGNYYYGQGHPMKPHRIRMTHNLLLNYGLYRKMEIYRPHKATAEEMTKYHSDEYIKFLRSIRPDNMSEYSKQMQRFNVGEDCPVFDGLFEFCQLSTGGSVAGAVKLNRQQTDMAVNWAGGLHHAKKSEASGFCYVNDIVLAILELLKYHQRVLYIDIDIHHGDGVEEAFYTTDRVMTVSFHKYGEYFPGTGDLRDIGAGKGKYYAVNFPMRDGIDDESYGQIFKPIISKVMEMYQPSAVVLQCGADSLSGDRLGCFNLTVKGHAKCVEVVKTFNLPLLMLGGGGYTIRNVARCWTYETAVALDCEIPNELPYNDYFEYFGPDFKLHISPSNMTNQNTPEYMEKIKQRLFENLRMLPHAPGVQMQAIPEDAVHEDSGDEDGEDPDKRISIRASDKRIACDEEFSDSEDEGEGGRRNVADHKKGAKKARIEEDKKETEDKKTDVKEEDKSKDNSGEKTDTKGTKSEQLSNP

How the values were obtained:
Assay in all cases: affinity purification with mass spectrometry; 0.5 mg precleared cell lysate incubated overnight at 4 °C with anti-p73 antibody (ER-15), complexes captured on preblocked Protein G Sepharose beads 1.5 h at 4 °C, washed, eluted at 95 °C for 10 min; LC-MS/MS (settings in ref. 5)
DNp73β (ΔEx2/3p73β) [1] = target: DNp73β (ΔEx2/3p73β) (UniProt O15350)
TAp73α = target: T1, TAp73α (UniProt O15350)
T1 sequence: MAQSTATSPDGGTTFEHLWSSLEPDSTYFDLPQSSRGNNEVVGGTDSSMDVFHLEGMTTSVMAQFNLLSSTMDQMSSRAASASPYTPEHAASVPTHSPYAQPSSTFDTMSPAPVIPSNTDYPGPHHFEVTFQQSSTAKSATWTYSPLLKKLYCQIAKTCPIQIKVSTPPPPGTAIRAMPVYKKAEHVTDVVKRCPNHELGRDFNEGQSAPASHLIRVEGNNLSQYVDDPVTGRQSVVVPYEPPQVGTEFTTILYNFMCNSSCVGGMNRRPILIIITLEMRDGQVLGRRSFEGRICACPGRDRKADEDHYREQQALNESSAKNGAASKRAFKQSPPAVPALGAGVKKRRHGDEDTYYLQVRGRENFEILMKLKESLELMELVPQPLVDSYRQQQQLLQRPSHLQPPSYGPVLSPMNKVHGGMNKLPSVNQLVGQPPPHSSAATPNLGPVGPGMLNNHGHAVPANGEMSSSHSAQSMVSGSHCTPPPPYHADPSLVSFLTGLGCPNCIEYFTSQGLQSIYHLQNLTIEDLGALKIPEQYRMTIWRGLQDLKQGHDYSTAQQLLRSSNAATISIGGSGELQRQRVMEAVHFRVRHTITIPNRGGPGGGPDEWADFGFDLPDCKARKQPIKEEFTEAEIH

DNp73β (ΔEx2/3p73β) [2] = target: DNp73β (ΔEx2/3p73β) (UniProt O15350); remark: listed apart in the source

Q: How did the binding (DNp73β (ΔEx2/3p73β) [1]) turn out when AHCTF1 (from UniProt Q8WYP5 1-2266) was run?
A: binds

Q: Which results are given for HDAC2 (from UniProt Q92769 1-488)?
A: binding (TAp73α): binds; binding (DNp73β (ΔEx2/3p73β) [1]): no binding

B1: PATZ1 (protein, UniProt Q9HBE1 1-687)
chain: MERVNDASCGPSGCYTYQVSRHSTEMLHNLNQQRKNGGRFCDVLLRVGDESFPAHRAVLAACSEYFESVFSAQLGDGGAADGGPADVGGATAAPGGGAGGSRELEMHTISSKVFGDILDFAYTSRIVVRLESFPELMTAAKFLLMRSVIEICQEVIKQSNVQILVPPARADIMLFRPPGTSDLGFPLDMTNGAALAANSNGIAGSMQPEEEAARAAGAAIAGQASLPVLPGVDRLPMVAGPLSPQLLTSPFPSVASSAPPLTGKRGRGRPRKANLLDSMFGSPGGLREAGILPCGLCGKVFTDANRLRQHEAQHGVTSLQLGYIDLPPPRLGENGLPISEDPDGPRKRSRTRKQVACEICGKIFRDVYHLNRHKLSHSGEKPYSCPVCGLRFKRKDRMSYHVRSHDGSVGKPYICQSCGKGFSRPDHLNGHIKQVHTSERPHKCQTCNASFATRDRLRSHLACHEDKVPCQVCGKYLRAAYMADHLKKHSEGPSNFCSICNRGFSSASYLKVHVKTHHGVPLPQVSRHQEPILNGGAAFHCARTYGNKEGQKCSHQDPIESSDSYGDLSDASDLKTPEKQSANGSFSCDMAVPKNKMESDGEKKYPCPECGSFFRSKSYLNKHIQKVHVRALGGPLGDLGPALGSPFSPQQNMSLLESFGFQIVQSAFASSLVDPEVDQQPMGPEGK
Q: For B1, which binding (DNp73β (ΔEx2/3p73β) [2]) is on record?
A: binds

B2: HMGB3 (protein, UniProt O15347 1-200)
chain: MAKGDPKKPKGKMSAYAFFVQTCREEHKKKNPEVPVNFAEFSKKCSERWKTMSGKEKSKFDEMAKADKVRYDREMKDYGPAKGGKKKKDPNAPKRPPSGFFLFCSEFRPKIKSTNPGISIGDVAKKLGEMWNNLNDSEKQPYITKAAKLKEKYEKDVADYKSKGKFDGAKGPAKVARKKVEEEDEEEEEEEEEEEEEEDE
Q: Which binding (DNp73β (ΔEx2/3p73β) [2]) does the source give for B2 here?
A: binds
